Laboratory results: patent US4904763A, “Physiologically-active novel peptides” (Daiichi Pure Chemicals Co., Ltd., priority 1987, dated 1990)
At least one peptide structure holds a part that was inferred or is arguable (an end, a ring closure or a residue). Positions of bridges follow the written chain, without caps; N, C: chain ends. Residues, ends and D or L forms follow the SMILES beside them.

Tested on: male SD rat
Assay: Diuresis and natriuresis in anesthetized rats
Format: in vivo
Conditions: 15 min after vs 15 min before administration
[1] = 0.1 nmol via femoral vein, n = 6
[2] = 0.2 nmol via femoral vein, n = 7
[3] = 0.4 nmol via femoral vein, n = 5

For CC[C@H](C)[C@@H]1NC(=O)[C@H](CCCNC(=N)N)NC(=O)[C@H](CC(=O)O)NC(=O)[C@H](CC(C)C)NC(=O)[C@H](CCCNC(=N)N)NC(=O)[C@H](CCCNC(=N)N)NC(=O)CNC(=O)[C@H](Cc2ccccc2)NC(=O)[C@@H](NC(=O)CNC(=O)[C@H](CO)NC(=O)[C@@H](N)CC(=O)O)CSSC[C@@H](C(=O)N[C@@H](CC(N)=O)C(=O)N[C@H](C(=O)N[C@@H](CC(C)C)C(=O)N[C@@H](CCCNC(=N)N)C(=O)N[C@@H](CCCNC(=N)N)C(=O)N[C@@H](Cc2ccc(O)cc2)C(=O)O)C(C)C)NC(=O)CNC(=O)[C@H](CC(C)C)NC(=O)CNC(=O)[C@H](CO)NC(=O)[C@H](CC(C)C)NC(=O)[C@H](CO)NC(=O)CNC1=O [Peptide A] (H-DSGCFGRRLDRIGSLSGLGCNVLRRY-OH; disulfide 4-20), the “Amount of urine (%)” value [1] was 121 ± 27%, the “Excreted amount of Cl, %” value [1] was 154 ± 44% and the “Excreted amount of K, %” value [1] was 120 ± 16%. For the same molecule, the “Excreted amount of Na, %” value [1] was 133 ± 4%, the “Amount of urine (%)” value [2] was 227 ± 42% and the “Excreted amount of Cl, %” value [2] was 274 ± 60%. For the same molecule, the “Excreted amount of K, %” value [2] was 210 ± 95%, the “Excreted amount of Na, %” value [2] was 376 ± 311% and the “Amount of urine (%)” value [3] was 368 ± 110%. For the same molecule, the “Excreted amount of Cl, %” value [3] was 497 ± 161%, the “Excreted amount of K, %” value [3] was 254 ± 85% and the “Excreted amount of Na, %” value [3] was 950 ± 291%.
